Laboratory results: the supplement of paper PMC10849652
Some of the results follow.

The chains behind the UniProt entries cited, without tags or fusion partners. Where a name states a change or a piece, a line headed by the entry shows the natural chain unless it says otherwise.
UniProt Q9UPY5: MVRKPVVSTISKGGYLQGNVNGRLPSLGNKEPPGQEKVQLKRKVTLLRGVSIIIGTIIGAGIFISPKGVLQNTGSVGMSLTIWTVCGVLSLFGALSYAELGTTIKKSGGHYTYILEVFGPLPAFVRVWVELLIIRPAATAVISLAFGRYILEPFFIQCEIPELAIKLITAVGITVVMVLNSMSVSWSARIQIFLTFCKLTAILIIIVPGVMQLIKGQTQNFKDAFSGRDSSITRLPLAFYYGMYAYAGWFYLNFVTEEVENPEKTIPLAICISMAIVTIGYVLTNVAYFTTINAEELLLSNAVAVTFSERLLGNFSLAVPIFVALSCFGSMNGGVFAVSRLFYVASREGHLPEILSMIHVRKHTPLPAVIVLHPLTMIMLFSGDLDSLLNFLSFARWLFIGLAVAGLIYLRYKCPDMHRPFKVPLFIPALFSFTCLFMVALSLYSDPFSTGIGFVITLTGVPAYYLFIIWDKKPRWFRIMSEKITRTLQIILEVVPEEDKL
UniProt Q9Y619: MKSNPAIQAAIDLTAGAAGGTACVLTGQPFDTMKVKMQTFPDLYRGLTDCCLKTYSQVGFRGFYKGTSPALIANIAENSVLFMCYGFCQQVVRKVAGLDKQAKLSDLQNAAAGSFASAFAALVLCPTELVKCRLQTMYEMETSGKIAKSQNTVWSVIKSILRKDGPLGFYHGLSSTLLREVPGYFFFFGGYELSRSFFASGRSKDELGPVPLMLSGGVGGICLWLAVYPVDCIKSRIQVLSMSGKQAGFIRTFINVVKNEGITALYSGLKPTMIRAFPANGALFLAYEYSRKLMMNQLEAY
UniProt P53985: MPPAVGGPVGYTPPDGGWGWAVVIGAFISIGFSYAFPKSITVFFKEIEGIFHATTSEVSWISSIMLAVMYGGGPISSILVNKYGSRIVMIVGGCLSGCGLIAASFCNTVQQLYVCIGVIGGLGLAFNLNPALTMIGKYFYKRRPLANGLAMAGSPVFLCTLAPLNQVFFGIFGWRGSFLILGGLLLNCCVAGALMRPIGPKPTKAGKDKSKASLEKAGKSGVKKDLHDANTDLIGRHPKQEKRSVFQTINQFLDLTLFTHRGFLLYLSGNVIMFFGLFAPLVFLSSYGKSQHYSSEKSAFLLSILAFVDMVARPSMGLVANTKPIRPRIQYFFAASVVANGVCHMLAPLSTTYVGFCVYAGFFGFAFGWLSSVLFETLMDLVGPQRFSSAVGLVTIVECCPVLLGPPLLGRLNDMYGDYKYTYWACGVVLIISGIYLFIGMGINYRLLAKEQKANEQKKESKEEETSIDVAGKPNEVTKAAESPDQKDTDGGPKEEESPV
UniProt Q9Y289: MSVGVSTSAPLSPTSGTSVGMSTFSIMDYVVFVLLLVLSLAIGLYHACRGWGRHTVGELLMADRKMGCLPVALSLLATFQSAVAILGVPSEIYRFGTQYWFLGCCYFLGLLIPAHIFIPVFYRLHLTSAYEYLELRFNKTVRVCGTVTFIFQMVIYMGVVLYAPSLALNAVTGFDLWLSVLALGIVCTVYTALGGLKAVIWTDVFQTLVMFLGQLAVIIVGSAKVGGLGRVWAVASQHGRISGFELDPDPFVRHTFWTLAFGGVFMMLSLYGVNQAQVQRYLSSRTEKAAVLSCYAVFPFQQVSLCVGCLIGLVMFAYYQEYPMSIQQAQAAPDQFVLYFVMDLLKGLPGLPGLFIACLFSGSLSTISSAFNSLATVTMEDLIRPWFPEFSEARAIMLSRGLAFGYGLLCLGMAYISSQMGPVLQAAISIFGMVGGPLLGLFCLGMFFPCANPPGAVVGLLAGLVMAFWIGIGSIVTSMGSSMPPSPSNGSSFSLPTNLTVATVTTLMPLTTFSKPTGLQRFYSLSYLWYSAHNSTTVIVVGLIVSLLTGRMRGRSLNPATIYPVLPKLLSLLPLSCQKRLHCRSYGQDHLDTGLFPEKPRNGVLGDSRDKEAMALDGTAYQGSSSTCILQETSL
UniProt P11169: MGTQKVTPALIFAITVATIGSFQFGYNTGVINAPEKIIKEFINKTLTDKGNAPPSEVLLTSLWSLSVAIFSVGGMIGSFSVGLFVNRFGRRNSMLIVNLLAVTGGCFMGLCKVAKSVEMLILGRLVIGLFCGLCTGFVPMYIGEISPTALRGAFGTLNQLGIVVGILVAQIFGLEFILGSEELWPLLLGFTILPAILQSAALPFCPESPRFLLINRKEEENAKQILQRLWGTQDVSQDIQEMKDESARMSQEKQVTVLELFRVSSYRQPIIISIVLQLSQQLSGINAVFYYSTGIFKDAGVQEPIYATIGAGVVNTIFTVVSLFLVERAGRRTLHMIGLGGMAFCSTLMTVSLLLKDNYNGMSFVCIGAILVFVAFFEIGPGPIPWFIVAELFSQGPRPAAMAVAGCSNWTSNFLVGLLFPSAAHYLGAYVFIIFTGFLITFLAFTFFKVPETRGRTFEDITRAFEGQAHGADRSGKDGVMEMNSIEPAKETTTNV
UniProt Q96BI1: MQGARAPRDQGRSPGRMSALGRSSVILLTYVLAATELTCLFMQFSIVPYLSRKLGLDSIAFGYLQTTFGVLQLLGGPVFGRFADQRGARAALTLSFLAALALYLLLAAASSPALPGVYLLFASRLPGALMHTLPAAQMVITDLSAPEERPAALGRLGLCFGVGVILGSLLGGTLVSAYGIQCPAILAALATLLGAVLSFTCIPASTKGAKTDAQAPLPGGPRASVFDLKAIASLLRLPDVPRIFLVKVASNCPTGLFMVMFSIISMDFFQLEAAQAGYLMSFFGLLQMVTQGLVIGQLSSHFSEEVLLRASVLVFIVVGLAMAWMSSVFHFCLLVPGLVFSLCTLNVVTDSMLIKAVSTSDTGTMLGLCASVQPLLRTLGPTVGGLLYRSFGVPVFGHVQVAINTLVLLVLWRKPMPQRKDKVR
UniProt Q96CQ1: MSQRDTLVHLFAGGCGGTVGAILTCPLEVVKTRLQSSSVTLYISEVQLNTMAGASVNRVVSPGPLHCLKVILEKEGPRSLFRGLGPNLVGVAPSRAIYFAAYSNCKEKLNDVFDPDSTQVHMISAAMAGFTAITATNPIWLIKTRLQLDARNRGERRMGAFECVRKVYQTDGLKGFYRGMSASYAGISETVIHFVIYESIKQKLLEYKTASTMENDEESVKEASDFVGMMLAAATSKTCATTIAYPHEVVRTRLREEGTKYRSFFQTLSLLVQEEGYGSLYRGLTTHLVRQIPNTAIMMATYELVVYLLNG
UniProt O43826: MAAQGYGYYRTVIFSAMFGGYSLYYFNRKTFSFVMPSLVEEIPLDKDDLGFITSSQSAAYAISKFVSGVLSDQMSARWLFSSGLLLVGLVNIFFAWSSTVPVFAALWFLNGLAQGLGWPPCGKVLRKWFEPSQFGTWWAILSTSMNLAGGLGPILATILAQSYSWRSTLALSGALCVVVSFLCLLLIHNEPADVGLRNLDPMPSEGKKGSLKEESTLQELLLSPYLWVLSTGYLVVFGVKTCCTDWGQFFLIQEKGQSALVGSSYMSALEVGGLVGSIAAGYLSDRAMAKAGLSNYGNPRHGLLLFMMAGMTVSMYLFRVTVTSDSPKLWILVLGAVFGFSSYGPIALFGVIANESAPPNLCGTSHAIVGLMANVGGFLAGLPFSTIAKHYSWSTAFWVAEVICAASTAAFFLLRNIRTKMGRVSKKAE
UniProt L0R6Q1: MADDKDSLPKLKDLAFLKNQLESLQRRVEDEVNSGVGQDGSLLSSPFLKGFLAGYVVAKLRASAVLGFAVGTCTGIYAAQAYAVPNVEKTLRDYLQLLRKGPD
UniProt Q70HW3: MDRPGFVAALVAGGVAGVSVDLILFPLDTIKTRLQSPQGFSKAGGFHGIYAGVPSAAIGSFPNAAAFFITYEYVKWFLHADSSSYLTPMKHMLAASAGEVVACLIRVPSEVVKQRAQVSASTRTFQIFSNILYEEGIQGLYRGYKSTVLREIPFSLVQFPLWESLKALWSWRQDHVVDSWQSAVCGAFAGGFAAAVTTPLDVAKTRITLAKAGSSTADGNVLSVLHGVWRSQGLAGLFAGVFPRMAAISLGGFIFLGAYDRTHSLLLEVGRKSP
UniProt Q9H2D1: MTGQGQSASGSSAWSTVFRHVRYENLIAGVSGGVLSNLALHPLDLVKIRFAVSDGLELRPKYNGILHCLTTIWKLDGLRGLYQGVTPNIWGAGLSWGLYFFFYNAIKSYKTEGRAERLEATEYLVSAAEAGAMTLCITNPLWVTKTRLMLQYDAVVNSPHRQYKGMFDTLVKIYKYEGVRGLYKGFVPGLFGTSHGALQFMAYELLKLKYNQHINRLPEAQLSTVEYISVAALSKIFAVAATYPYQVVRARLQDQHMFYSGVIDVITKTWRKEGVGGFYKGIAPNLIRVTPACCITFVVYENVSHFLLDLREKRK
UniProt Q9HC21: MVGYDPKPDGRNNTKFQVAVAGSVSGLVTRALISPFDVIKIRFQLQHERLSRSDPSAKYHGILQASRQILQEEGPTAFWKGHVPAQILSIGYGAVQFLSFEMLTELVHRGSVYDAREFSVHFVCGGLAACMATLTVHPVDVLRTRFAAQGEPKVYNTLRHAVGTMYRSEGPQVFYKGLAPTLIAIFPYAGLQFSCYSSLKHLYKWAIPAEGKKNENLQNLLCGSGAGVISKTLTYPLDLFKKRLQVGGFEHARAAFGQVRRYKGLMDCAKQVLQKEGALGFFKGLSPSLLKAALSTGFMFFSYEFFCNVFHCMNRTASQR
UniProt P02730: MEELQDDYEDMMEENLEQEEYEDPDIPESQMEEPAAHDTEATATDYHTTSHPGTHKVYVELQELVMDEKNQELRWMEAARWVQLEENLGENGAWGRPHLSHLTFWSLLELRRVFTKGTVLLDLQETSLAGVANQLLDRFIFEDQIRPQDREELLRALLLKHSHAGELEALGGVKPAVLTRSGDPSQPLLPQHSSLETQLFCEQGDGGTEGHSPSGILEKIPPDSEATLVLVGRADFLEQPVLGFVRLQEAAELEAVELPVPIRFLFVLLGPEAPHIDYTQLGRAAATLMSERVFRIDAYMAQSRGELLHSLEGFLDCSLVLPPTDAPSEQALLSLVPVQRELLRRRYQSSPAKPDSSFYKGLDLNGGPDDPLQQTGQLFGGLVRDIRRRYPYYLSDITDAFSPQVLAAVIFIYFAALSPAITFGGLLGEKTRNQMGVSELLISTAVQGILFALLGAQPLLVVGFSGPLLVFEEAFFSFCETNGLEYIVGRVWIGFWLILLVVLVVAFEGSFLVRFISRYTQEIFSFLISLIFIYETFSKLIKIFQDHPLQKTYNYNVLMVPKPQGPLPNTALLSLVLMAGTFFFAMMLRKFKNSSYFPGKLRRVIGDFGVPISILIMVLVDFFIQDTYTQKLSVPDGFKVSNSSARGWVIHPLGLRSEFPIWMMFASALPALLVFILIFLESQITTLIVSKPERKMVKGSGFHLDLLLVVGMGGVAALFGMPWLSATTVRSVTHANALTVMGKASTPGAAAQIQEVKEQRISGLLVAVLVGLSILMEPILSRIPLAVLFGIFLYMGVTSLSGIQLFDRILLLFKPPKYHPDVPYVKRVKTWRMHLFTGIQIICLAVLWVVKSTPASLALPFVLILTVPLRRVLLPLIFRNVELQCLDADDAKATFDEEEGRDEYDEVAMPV
UniProt Q8NBW4: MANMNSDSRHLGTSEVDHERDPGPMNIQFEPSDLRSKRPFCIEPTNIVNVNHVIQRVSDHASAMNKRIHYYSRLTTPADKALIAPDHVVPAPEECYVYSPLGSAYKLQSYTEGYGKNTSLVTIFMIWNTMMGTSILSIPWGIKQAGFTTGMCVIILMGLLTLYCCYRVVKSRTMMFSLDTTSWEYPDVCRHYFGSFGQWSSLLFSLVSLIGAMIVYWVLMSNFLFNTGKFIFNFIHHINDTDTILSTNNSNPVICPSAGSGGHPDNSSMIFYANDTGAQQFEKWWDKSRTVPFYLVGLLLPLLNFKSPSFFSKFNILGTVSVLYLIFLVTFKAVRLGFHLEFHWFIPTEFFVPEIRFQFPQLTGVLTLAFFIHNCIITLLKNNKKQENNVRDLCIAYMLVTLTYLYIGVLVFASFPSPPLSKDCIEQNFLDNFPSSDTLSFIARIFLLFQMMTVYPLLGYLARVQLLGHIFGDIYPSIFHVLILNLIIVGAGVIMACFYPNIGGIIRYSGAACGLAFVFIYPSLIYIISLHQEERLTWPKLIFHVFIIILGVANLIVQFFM
UniProt Q9NYZ2: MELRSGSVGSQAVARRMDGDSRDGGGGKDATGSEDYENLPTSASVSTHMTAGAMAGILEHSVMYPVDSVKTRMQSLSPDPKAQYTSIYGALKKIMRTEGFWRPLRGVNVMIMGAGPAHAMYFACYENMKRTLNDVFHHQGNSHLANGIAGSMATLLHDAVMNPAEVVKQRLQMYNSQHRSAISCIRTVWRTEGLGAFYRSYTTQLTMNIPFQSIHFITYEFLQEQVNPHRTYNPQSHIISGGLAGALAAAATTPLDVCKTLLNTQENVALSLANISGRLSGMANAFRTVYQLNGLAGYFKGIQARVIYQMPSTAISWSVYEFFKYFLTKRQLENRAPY

Columns and labels:
Assay in all cases: log2 fold change, soluble protein after heating vs DMSO (PISA); higher = thermal stabilisation; K562 cells, 10 uM, 30 min; active = over 0.2 and 3.5 SD of the protein, either way, in both replicates (recomputed)
[1] = compound: CS(=O)(=O)c1ccc(-c2cnc(N)c(C(=O)Nc3ccccc3)n2)cc1
Outline: (§1)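 Thermal stability values are relative to control samples and come from duplicates. They are expressed as log2 fold changes. For measurement, K562 cells (2×10^6 cells/mL) received 10 μM compound for 30 min, and aliquots were heated for 3 min over 48°C-58°C, pooled, and extracted at 4°C in PBS with 0.5% NP-40. Soluble protein, the supernatant after 21,000xg for 90 min, was quantified by TMTpro 16plex LC-MS/MS with equalised channel sums.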

[2] = compound: C[C@@H](Oc1cc(-c2cnn(C3CCNCC3)c2)cnc1N)c1c(Cl)ccc(F)c1Cl [crizotinib]
Outline: as §1

[3] = compound: C[C@@H]1COCCN1C2=NC(=NC(=C2)C3(CC3)S(=O)(=O)C)C4=C5C=CNC5=CC=C4
Outline: as §1

[4] = compound: C[C@H](C1=CC=C(C=C1)C(=O)NC2=C3C=CNC3=NC=C2)N
Outline: as §1

[5] = compound: C[C@H](Nc1ncnc2nc[nH]c12)c1cc2cccc(Cl)c2c(=O)n1-c1ccccc1 [duvelisib]
Outline: as §1

[6] = compound: Cc1cc(Nc2cc(CN3CCOCC3)c3nc(C)c(Cc4ccc(Cl)cc4F)n3n2)n[nH]1 [gandotinib]
Outline: as §1

[7] = compound: Cc1cc(Nc2cc(N3CCN(C)CC3)nc(Sc3ccc(NC(=O)C4CC4)cc3)n2)n[nH]1 [tozasertib]
Outline: as §1

[8] = compound: Cc1cc(SCc2sc(-c3ccc(C(F)(F)F)cc3)nc2C)ccc1OCC(=O)O
Outline: as §1

[9] = compound: Cc1ccc(-n2nc(C(C)(C)C)cc2NC(=O)Nc2ccc(OCCN3CCOCC3)c3ccccc23)cc1 [doramapimod]
Outline: as §1

[10] = compound: Cc1ccc(C(=O)N(CCCN)[C@@H](c2nc3cc(Cl)ccc3c(=O)n2Cc2ccccc2)C(C)C)cc1 [ispinesib]
Outline: as §1

[11] = compound: Cc1ccc(NC(=O)c2ccc(CN3CC[C@H](N(C)C)C3)c(C(F)(F)F)c2)cc1Nc1nccc(-c2cncnc2)n1 [bafetinib]
Outline: as §1

[12] = compound: Cc1cccc(CC(=O)N2CCc3c2ccc(-c2cn(C)c4ncnc(N)c24)c3F)n1
Outline: as §1

[13] = compound: Cc1cn(-c2cc(NC(=O)c3ccc(C)c(Nc4nccc(-c5cccnc5)n4)c3)cc(C(F)(F)F)c2)cn1 [nilotinib]
Outline: as §1

[14] = compound: Cc1nc(Nc2n[nH]c3c2CN(C(=O)N[C@H](CN(C)C)c2ccccc2)C3(C)C)c2sccc2n1
Outline: as §1

[15] = compound: Cc1nc(Nc2ncc(C(=O)Nc3c(C)cccc3Cl)s2)cc(N2CCN(CCO)CC2)n1 [dasatinib]
Outline: as §1

[16] = compound: Cc1ncc(-c2ccnc(Nc3ccc(S(C)(=O)=O)cc3)n2)n1C(C)C
Outline: as §1

[17] = compound: Cn1cc(-c2ccc3c(c2)CCN3C(=O)Cc2cccc(C(F)(F)F)c2)c2c(N)ncnc21
Outline: as §1

[18] = compound: Cn1cc(-c2ccc3nnc(C(F)(F)c4ccc5ncccc5c4)n3n2)cn1
Outline: as §1

[19] = compound: Cn1cncc1[C@@](N)(c1ccc(Cl)cc1)c1ccc2c(c1)c(-c1cccc(Cl)c1)cc(=O)n2C [tipifarnib]
Outline: as §1

[20] = compound: FC(F)(F)c1ccc(/C=C/c2nc(COc3ccc(CCCCn4ccnn4)cc3)co2)cc1 [mubritinib]
Outline: as §1

Measured: log2 fold change

SLC7A11 (UniProt Q9UPY5)
inactive: [1] 0.015 | [2] 0.049 | [3] -0.01 | [4] -0.045 | [5] 0.093 | [6] 0.024 | [7] -0.05 | [8] -0.025 | [9] -0.024 | [10] 0.067 | [11] -0.075 | [12] -0.043 | [13] 0.073 | [14] -0.002 | [15] 0.033 | [16] 0 | [17] 0.05 | [18] 0.006 | [19] 0.014 | [20] -0.003

SLC25A15 (UniProt Q9Y619)
inactive: [1] 0.025 | [2] 0.093 | [3] 0.02 | [4] -0.044 | [5] 0.017 | [6] 0.035 | [7] -0.027 | [8] -0.028 | [9] -0.002 | [10] 0.046 | [11] -0.056 | [12] 0.004 | [13] 0 | [14] 0.021 | [15] 0.033 | [16] -0.064 | [17] 0.001 | [18] -0.037 | [19] 0.058 | [20] 0.008

SLC16A1 (UniProt P53985)
inactive: [1] 0.037 | [2] 0.118 | [3] 0.037 | [4] -0.025 | [5] 0.159 | [6] -0.169 | [7] -0.038 | [8] 0.001 | [9] 0.04 | [10] 0.068 | [11] 0.047 | [12] 0.005 | [13] 0.092 | [14] -0.062 | [15] 0.033 | [16] 0.03 | [17] -0.007 | [18] -0.093 | [19] -0.025 | [20] 0.053

SLC5A6 (UniProt Q9Y289)
inactive: [1] 0.021 | [2] 0.065 | [3] 0.068 | [4] -0.116 | [5] 0.066 | [6] -0.054 | [7] -0.054 | [8] -0.078 | [9] 0.032 | [10] 0.107 | [11] 0.09 | [12] -0.004 | [13] 0.026 | [14] -0.015 | [15] 0.123 | [16] -0.005 | [17] 0.112 | [18] -0.028 | [19] 0.009 | [20] 0.025

SLC2A3 (UniProt P11169)
inactive: [1] -0.012 | [2] 0.06 | [3] 0.033 | [4] -0.15 | [5] 0.025 | [6] -0.075 | [7] -0.053 | [8] -0.052 | [9] -0.034 | [10] 0.093 | [11] 0.058 | [12] -0.044 | [13] 0.054 | [14] 0.015 | [15] 0.021 | [16] -0.011 | [17] 0.019 | [18] 0.048 | [19] 0.057 | [20] 0.053

SLC22A18 (UniProt Q96BI1)
inactive: [1] 0.066 | [2] 0.159 | [3] 0.077 | [4] 0.044 | [5] 0.114 | [6] -0.018 | [7] -0.07 | [8] 0.001 | [9] 0.015 | [10] -0.044 | [11] -0.058 | [12] -0.112 | [13] 0.077 | [14] 0.031 | [15] -0.04 | [16] -0.056 | [17] 0.029 | [18] 0.015 | [19] 0.058 | [20] 0.005

SLC25A36 (UniProt Q96CQ1)
inactive: [1] 0.016 | [2] 0.067 | [3] -0.061 | [4] -0.011 | [6] 0.313 | [8] -0.089 | [9] -0.027 | [10] -0.021 | [11] -0.049 | [12] -0.003 | [13] -0.01 | [14] 0.182 | [15] -0.136 | [16] -0.138 | [17] 0.033 | [18] -0.004 | [19] -0.075 | [20] -0.078

SLC37A4 isoform 2 (UniProt O43826)
inactive: [1] 0.011 | [2] 0.064 | [3] 0.016 | [4] -0.044 | [5] 0.014 | [6] 0.021 | [7] -0.028 | [8] -0.032 | [9] 0.016 | [10] -0.061 | [11] -0.05 | [12] -0.044 | [13] -0.044 | [14] 0.011 | [15] 0.068 | [16] -0.051 | [17] 0.029 | [18] 0.009 | [19] -0.018 | [20] 0.058

SLC35A4 (UniProt L0R6Q1)
inactive: [1] -0.007 | [2] 0.161 | [3] 0.055 | [4] -0.134 | [5] 0.129 | [6] 0.14 | [7] 0.033 | [8] -0.096 | [9] -0.01 | [10] 0.08 | [11] -0.088 | [12] 0.136 | [13] 0.054 | [14] -0.021 | [15] 0.124 | [16] -0.058 | [17] 0.065 | [18] 0.234 | [19] -0.119 | [20] 0.05

SLC25A26 (UniProt Q70HW3)
inactive: [1] 0.056 | [2] -0.037 | [3] 0.058 | [4] 0.044 | [5] 0.007 | [6] 0.037 | [7] -0.156 | [8] -0.067 | [9] -0.193 | [10] 0.044 | [11] 0.033 | [12] 0.098 | [13] -0.036 | [14] -0.126 | [15] 0.01 | [16] -0.141 | [17] 0.004 | [18] 0.128 | [20] 0.133

SLC25A32 (UniProt Q9H2D1)
inactive: [1] -0.005 | [2] 0.036 | [3] 0.027 | [4] -0.02 | [5] 0.018 | [6] -0.057 | [7] -0.002 | [8] -0.024 | [9] 0.019 | [10] 0 | [11] -0.014 | [12] -0.005 | [13] -0.001 | [14] -0.002 | [15] 0.041 | [16] 0.01 | [17] 0.036 | [18] -0.011 | [19] 0.009 | [20] 0.052

SLC25A19 (UniProt Q9HC21)
inactive: [1] 0.005 | [2] 0.086 | [3] 0.02 | [4] -0.041 | [5] 0.002 | [6] 0.033 | [7] -0.012 | [8] -0.041 | [9] -0.03 | [10] 0.037 | [11] -0.055 | [12] -0.002 | [13] 0.009 | [14] 0.031 | [15] 0.034 | [16] -0.015 | [17] 0.03 | [18] 0.011 | [19] 0.039 | [20] 0.006

Copied from above (2 entries):
SLC35A4 (UniProt L0R6Q1)
inactive: [1] -0.007 | [2] 0.161 | [3] 0.055 | [4] -0.134 | [5] 0.129 | [6] 0.14 | [7] 0.033 | [8] -0.096 | [9] -0.01 | [10] 0.08 | [11] -0.088 | [12] 0.136 | [13] 0.054 | [14] -0.021 | [15] 0.124 | [16] -0.058 | [17] 0.065 | [18] 0.234 | [19] -0.119 | [20] 0.05

SLC25A26 (UniProt Q70HW3)
inactive: [1] 0.056 | [2] -0.037 | [3] 0.058 | [4] 0.044 | [5] 0.007 | [6] 0.037 | [7] -0.156 | [8] -0.067 | [9] -0.193 | [10] 0.044 | [11] 0.033 | [12] 0.098 | [13] -0.036 | [14] -0.126 | [15] 0.01 | [16] -0.141 | [17] 0.004 | [18] 0.128 | [20] 0.133

(listing goes on)

SLC4A1 (UniProt P02730)
inactive: [1] 0.052 | [2] -0.039 | [3] 0.062 | [4] -0.011 | [5] 0.056 | [6] -0.053 | [7] -0.111 | [8] 0.01 | [9] 0.149 | [10] -0.062 | [11] -0.195 | [12] 0.034 | [13] -0.099 | [14] 0.008 | [15] 0.035 | [16] 0.038 | [17] 0.041 | [18] -0.005 | [19] 0.014 | [20] 0.028

SLC43A3 isoform 2 (UniProt Q8NBI5)
inactive: [1] 0.028 | [2] 0.115 | [3] 0.063 | [4] -0.079 | [5] 0.069 | [6] -0.063 | [7] -0.07 | [8] -0.093 | [9] -0.016 | [10] 0.027 | [11] 0.033 | [12] -0.016 | [13] 0.096 | [14] 0.004 | [15] 0.019 | [16] 0.016 | [17] 0.023 | [18] -0.026 | [19] 0.001 | [20] 0.04

SLC38A9 (UniProt Q8NBW4)
inactive: [1] 0.165 | [2] -0.201 | [3] 0.052 | [4] 0.003 | [6] -0.018 | [8] -0.058 | [9] 0.067 | [11] -0.022 | [12] -0.04 | [13] 0.02 | [14] 0.05 | [15] 0.094 | [16] -0.081 | [17] -0.017 | [18] -0.034 | [19] 0.038 | [20] 0.046
active: [10] -0.474

SLC25A37 (UniProt Q9NYZ2)
inactive: [1] 0.038 | [2] -0.056 | [3] -0.093 | [4] -0.092 | [5] -0.028 | [6] -0.048 | [7] -0.015 | [8] -0.064 | [9] 0.151 | [10] 0.046 | [11] -0.043 | [12] 0.066 | [13] 0.004 | [14] -0.014 | [15] 0.03 | [16] 0.007 | [17] 0.082 | [18] -0.061 | [19] 0.029 | [20] -0.008
